# Source: PMC7049810
# No constants are given. Whether binding was seen depends on the method and setting. Binding seen in cells or lysates may run through a third protein. Here binding means that the protein was enriched with, or labelled near, the bait; the list need not be complete.
# T1: NlpI, soluble version lacking its membrane anchor (Escherichia coli) (UniProt P0AFB1)
# T1 sequence (chain, where used as fl-NlpI in MST, NT647 RED-NHS dye on amines): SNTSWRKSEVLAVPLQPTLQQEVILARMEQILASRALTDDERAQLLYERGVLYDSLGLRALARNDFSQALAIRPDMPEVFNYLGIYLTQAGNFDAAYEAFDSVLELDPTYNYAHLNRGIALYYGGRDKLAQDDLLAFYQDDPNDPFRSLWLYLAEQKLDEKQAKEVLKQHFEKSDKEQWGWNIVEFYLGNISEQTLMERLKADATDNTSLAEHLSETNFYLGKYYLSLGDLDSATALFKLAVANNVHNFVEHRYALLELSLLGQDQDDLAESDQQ
# B1: FtsX, endogenous in E. coli membrane extract (protein, UniProt P0AC30 1-352)
# chain: MNKRDAINHIRQFGGRLDRFRKSVGGSGDGGRNAPKRAKSSPKPVNRKTNVFNEQVRYAFHGALQDLKSKPFATFLTVMVIAISLTLPSVCYMVYKNVNQAATQYYPSPQITVYLQKTLDDDAAAGVVAQLQAEQGVEKVNYLSREDALGEFRNWSGFGGALDMLEENPLPAVAVVIPKLDFQGTESLNTLRDRITQINGIDEVRMDDSWFARLAALTGLVGRVSAMIGVLMVAAVFLVIGNSVRLSIFARRDSINVQKLIGATDGFILRPFLYGGALLGFSGALLSLILSEILVLRLSSAVAEVAQVFGTKFDINGLSFDECLLLLLVCSMIGWVAAWLATVQHLRHFTPE
# B2: MltA, endogenous in E. coli membrane extract (enzyme, UniProt P0A935 21-365)
# chain: CSSKPTDRGQQYKDGKFTQPFSLVNQPDAVGAPINAGDFAEQINHIRNSSPRLYGNQSNVYNAVQEWLRAGGDTRNMRQFGIDAWQMEGADNYGNVQFTGYYTPVIQARHTRQGEFQYPIYRMPPKRGRLPSRAEIYAGALSDKYILAYSNSLMDNFIMDVQGSGYIDFGDGSPLNFFSYAGKNGHAYRSIGKVLIDRGEVKKEDMSMQAIRHWGETHSEAEVRELLEQNPSFVFFKPQSFAPVKGASAVPLVGRASVASDRSIIPPGTTLLAEVPLLDNNGKFNGQYELRLMVALDVGGAIKGQHFDIYQGIGPEAGHRAGWYNHYGRVWVLKTAPGAGNVFSG
# Tests used:
# [1] = biological target: T1, NlpI, soluble version lacking its membrane anchor (Escherichia coli); assay: affinity purification with mass spectrometry; NlpI coupled to Sepharose; detergent-solubilized E. coli membrane extract bound at low salt (50 mM NaCl), 6°C, eluted with 1 M NaCl; label-free LC-MS against a Tris-Sepharose control column; only the target purified
# [2] = biological target: T1, NlpI, soluble version lacking its membrane anchor (Escherichia coli); assay: affinity purification with mass spectrometry; NlpI coupled to Sepharose; detergent-solubilized E. coli membrane extract bound at high salt (400 mM NaCl), 6°C, eluted with 2 M NaCl; label-free LC-MS against a Tris-Sepharose control column; only the target purified
binder,measurement,setting,value
B1,binding,[1],binds
same,binding,[2],binds
B2,binding,[1],binds
same,binding,[2],binds
